Reference: US6451785B1, “Beta lactams as antiproliferative agents” (SmithKline Beecham Corporation, priority 1997, dated 2002)
pIC50: −log10 of the molar value. Some of these results come from one statement about several compounds together.

tested on: CoA-IT; assay: CoA-IT activity assay in U937 cell microsomes; format: biochemical; settings: microsomal CoA-IT assay, 10 min preincubation time, time-dependent inhibitor; read-out: IC50, inhibition of CoA-IT activity
Source text: The following is a method to measure CoA-IT activity and the effects of compounds on CoA-IT activity. The assay is based upon mixing cellular material containing CoA-IT activity with a stable lyso phospholipid such as […] and measuring the production of phospholipid product such as […] occurring in the absence of added CoA or CoA-fatty acids.
Any inflammatory cell that contains high levels of CoA-IT activity can be used, such as neutrophils, macrophages or cell lines such as U937 cells. U937 cells were obtained from American Type Culture Collection and grown in RPMI-1640 media (Gibco, Grand Island, N.Y.) supplemented with 10% fetal bovine serum (Hyclone, Logan, UT) at 37° C., 5% CO2. Cells were grown without differentiation (basal state) by any agent, such as dimethyl sulfoxide. As used herein, “inflammatory cells” include, but are not limited to neutrophils, macrophages, monocytes, lymphocytes, eosinophils, basophils, and mast cells.
Microsomes were prepared using standard techniques. In this case, cells were washed with a buffer of 250 mM sucrose, 10 mM Tris, 1 mM EGTA, 1 mM MgCl2, pH 7.4 and ruptured by N2 cavitation (750 psi, 10 minutes). The ruptured cells were centrifuged 1000×g, 5 minutes. The resulting supernatant was centrifuged at 20,000×g,˜20 minutes. Microsomes were prepared from this supernatant by centrifugation at 100,000×g, 60 minutes. The resulting pellet was washed once with assay buffer (150 mM NaCl, 10 mM Na2KPO4, 1 mM EGTA, pH 7.4), recentrifuged and the pellet resuspended in assay buffer (4-20 mg protein/ml) and was stored at −80° C. until assayed.
CoA-II activity was measured in 1.5 ml centrifuge tubes in a total volume of 100 ul. Microsomes were diluted in assay buffer to the desired protein concentration (6-20 ug/tube). The reaction was initiated by addition of [3H]1-alkyl-2-lyso-sn-glycero-3-phosphocholine (GPC) (˜0.1 uCi/tube) and 1 μM final cold 1-alkyl-2-lyso-GPC in assay buffer with 0.25 mg/ml fatty acid-poor bovine serum albumin (BSA) (Calbiochem, La Jolla, Calif.). [3H]1-alkyl-2-lyso-GPC, approximately 50 Ci/mmol, was from NEN-Dupont (Boston, Mass.) and cold 1-alkyl-2-lyso-GPC was from Biomol (Plymouth Meeting, Pa.). Microsomes were pretreated with desired agents for the desired time (10 minutes) before the addition of [3H]1-alkyl-2-lyso-GPC. The reaction was run for the desired tlime (10 minutes) at 37° C. The reaction was stopped and the lipids extracted by addition of 100 ul of chloroform:methanol (1:2, v/v) followed by 100 ul of chloroform and 100 ul of 1 M KCI. The samples were vortexed and centrifuged at high speed in a microfuge for 2-3 minutes. An aliquot of the chloroform-extracted materials were separated, usually by TLC in chloroform/methanol/acetic acid/water (50:25:8:4, v/v), visualized by radioscanning (Bioscan) and the product, [3H]1-alkyl-2-acyl-GPC, was scraped and quantified by liquid scintillation spectroscopy. […] Other methods can be used to separate substrate from product, including but not limited to column chromatography, affinity chromatography and post reaction derivitization.
Protein concentration were assessed using the protein assay reagents from Bio Rad (Richmond, Calif.).

| Structure (SMILES) | pIC50 |
| --- | --- |
| CC(C)CO[C@H]1NC(=O)[C@@H]1NC(c1ccccc1)(c1ccccc1)c1ccccc1 (racemic) [Example 1, (3RS,4RS)-4-(Isobutoxy)-3-(triphenylmethylamino)azetidin-2-one] | > 4.30 |
| O=C1NCC1NC(c1ccccc1)(c1ccccc1)c1ccccc1 (racemic) [Example 26, (RS)-3-(Triphenylmethylamino)azetidin-2-one] | > 4.30 |
| CC(C)CO[C@H]1NC(=O)[C@@H]1NC(c1ccccc1)(c1ccccc1)c1ccccc1 [Example 2 (3R,4R), (3R,4R)-4-(isobutoxy)-3-(triphenylmethylaiino)azetidin-2-one] | > 4.30 |
| CC(C)CS[C@H]1NC(=O)[C@H]1NC(c1ccccc1)(c1ccccc1)c1ccccc1 [Example 3, (3R4R)-4-(Isobutylthio)-3-(triphenylmethylamino)azetidin-2-one] | > 4.30 |
| CC(C)CS(=O)(=O)[C@H]1NC(=O)[C@H]1NC(c1ccccc1)(c1ccccc1)c1ccccc1 [Example 4, (3R4R)-4-(Isobutylsulfonyl)-3-(triphenylmethylamino)azetidin-2-one] | > 4.30 |
| CC(C)CO[C@@H]1NC(=O)[C@H]1NC(c1ccccc1)(c1ccccc1)c1ccccc1 [Example 5, (3S,4S)-4-(Isobutoxy)-3-(triphenylmethylamino)azetidin-2-one] | > 4.30 |
| CC(C)CO[C@H]1NC(=O)[C@H]1NC(c1ccccc1)(c1ccccc1)c1ccccc1 [Example 6, (3S,4R)-4-(Isobutoxy)-3-(triphenylmethylamino)azetidin-2-one] | > 4.30 |
| CCCO[C@H]1NC(=O)[C@H]1NC(c1ccccc1)(c1ccccc1)c1ccccc1 [Example 7, (3S,4R)-4-(Propoxy)-3-(triphenylmethylamino)azetidin-2-one] | > 4.30 |
| CCCO[C@@H]1NC(=O)[C@H]1NC(c1ccccc1)(c1ccccc1)c1ccccc1 [Example 8, (3S,4S)-4-(Propoxy)-3-(triphenylmethylamino)azetidin-2-one] | > 4.30 |
| O=C1N[C@H](OCc2ccccc2)[C@@H]1NC(c1ccccc1)(c1ccccc1)c1ccccc1 [Example 9, (3S,4R)-4-(Benzyloxy)-3-(triphenylmethylamino)azetidin-2-one] | > 4.30 |
| O=C1N[C@@H](OCc2ccccc2)[C@@H]1NC(c1ccccc1)(c1ccccc1)c1ccccc1 [Example 10, (3S,4S)-4-(Benzyloxy)-3-(triphenylmethylamino)azetidin-2-one] | > 4.30 |
| CO[C@H]1NC(=O)[C@H]1NC(c1ccccc1)(c1ccccc1)c1ccccc1 [Example 11, (3S,4R)-4-Methoxy-3-(triphenylmethylamino)azetidin-2-one] | > 4.30 |
| CCCCCCCCO[C@H]1NC(=O)[C@H]1NC(c1ccccc1)(c1ccccc1)c1ccccc1 [Example 13, (3S,4R)-4-Octyloxy-3-(triphenylmethylamino)azetidin-2-one] | > 4.30 |
| O=C1N[C@H](Oc2ccccc2)[C@@H]1NC(c1ccccc1)(c1ccccc1)c1ccccc1 [Example 14, (3S,4R)-4-phenoxy-3-(triphenylmethylamino)azetidin-2-one] | > 4.30 |
| O=C1N[C@@H](Oc2ccccc2)[C@@H]1NC(c1ccccc1)(c1ccccc1)c1ccccc1 [Example 15, (3S,4S)-4-phenoxy-3-(triphenylmethylamino)azetidin-2-one] | > 4.30 |
| CC(C)CO[C@H]1NC(=O)[C@H]1NC(c1ccccc1)(c1ccccc1)c1ccc(I)cc1 [Example 16, (3S,4R)-3-[[(4-Iodophenyl)diphenylmethyl]amino]-4-(isobutoxy)azetidin-2-one] | > 4.30 |
| COC(=O)CCCO[C@@H]1NC(=O)[C@H]1NC(c1ccccc1)(c1ccccc1)c1ccccc1 [Example 17, (3S,4S)-4-[3-(Methoxycarbonyl)propoxy]-3-(triphenylmethylamino)azetidin-2-one] | > 4.30 |
| COC(=O)C#CCO[C@@H]1NC(=O)[C@H]1NC(c1ccccc1)(c1ccccc1)c1ccccc1 [Example 18, Methyl 4-[(3S,4S)-2-oxo-3-(triphenylmethylamino)azetidin-4-yloxy]but-2-ynoate] | > 4.30 |
| COC(=O)C#CCO[C@H]1NC(=O)[C@H]1NC(c1ccccc1)(c1ccccc1)c1ccccc1 [Example 19, Methyl 4-[(3S,4R)-2-oxo-3-(triphenylmethylamino)azetidin-4-yloxy]but-2-ynoate] | > 4.30 |
| O=C1C=C(CO[C@H]2NC(=O)[C@H]2NC(c2ccccc2)(c2ccccc2)c2ccccc2)CO1 [Example 20, (3S,4R)-4-[(2(5H)Furanon-4-yl)methoxy]-3-(triphenylmethylamino)azetidin-2-one] | > 4.30 |
| O=C1N[C@H](OCC2(Cc3cccnc3)SCCCS2)[C@@H]1NC(c1ccccc1)(c1ccccc1)c1ccccc1 [Example 21, (3S,4R)-4-[[2-(3-Pyridylmethyl)-1,3-dithian-2-yl]methoxy]-3-(triphenylmethylamino)azetidin-2-one] | > 4.30 |
| C#CCO[C@@H]1NC(=O)[C@H]1NC(c1ccccc1)(c1ccccc1)c1ccccc1 [Example 22, (3S,4S)-4-(Prop-2-ynyloxy)-3-(triphenylmethylamio)azetidin-2-one] | > 4.30 |
| CS(=O)(=O)[C@H]1NC(=O)[C@H]1NC(c1ccccc1)(c1ccccc1)c1ccccc1 [Example 23, (3R,4R)-4-(Methylsulfonyl)-3-(triphenylmethylamino)azetidin-2-one] | > 4.30 |
| O=C1NC[C@@H]1NC(c1ccccc1)(c1ccccc1)c1ccccc1 [Example 25, (S)-3-(Triphenylmethylamino)azetidin-2-one] | > 4.30 |
